Test results: patent US5840835A (Merck & Co., Inc., priority 1996, dated 1998)

Assay: solution-phase peptide synthesis; EDC/HOBT
Details: coupling step, of the theoretical yield, TFA salt

## EtOCO-(L)Cha (α-BOC)(L)Lys Nva.psi.[trans cPr]Nle-NH2
  step yield: 44%
